Marks after values point to notes of the source that are not given here.
test: Deliverability of anionophores to vesicles (external addition vs preincorporation); format: biochemical; details: I for external addition divided by I for preincorporated anionophore; new compound or new data

SMILES	Deliverability index (D)
CCc1c(CNC(=S)Nc2ccc(C(F)(F)F)cc2)c(CC)c(CNC(=S)Nc2ccc(C(F)(F)F)cc2)c(CC)c1CNC(=S)Nc1ccc(C(F)(F)F)cc1 [Compound 5]	0.24 ^b
CCOC(=O)[C@]12CC[C@@H](NC(=S)Nc3ccc([N+](=O)[O-])cc3)C[C@@H]1C[C@@H](NC(=S)Nc1ccc([N+](=O)[O-])cc1)CC2 [Compound 12]	1.12
CCc1c(CNC(=O)Nc2cc(C(F)(F)F)cc(C(F)(F)F)c2)c(CC)c(CNC(=O)Nc2cc(C(F)(F)F)cc(C(F)(F)F)c2)c(CC)c1CNC(=O)Nc1cc(C(F)(F)F)cc(C(F)(F)F)c1 [Compound 7]	0.18 ^b
FC(F)(F)c1cc(NC(=S)NCCN(CCNC(=S)Nc2cc(C(F)(F)F)cc(C(F)(F)F)c2)CCNC(=S)Nc2cc(C(F)(F)F)cc(C(F)(F)F)c2)cc(C(F)(F)F)c1 [Compound 19]	2.98 ^b
COCCOCCOC(=O)[C@]12CC[C@@H](NC(=O)Nc3cc(C(F)(F)F)cc(C(F)(F)F)c3)C[C@@H]1C[C@@H](NC(=O)Nc1cc(C(F)(F)F)cc(C(F)(F)F)c1)CC2 [Compound 10]	0.95
CCOC(=O)[C@]12CC[C@@H](NC(=S)Nc3ccc(C(F)(F)F)cc3)C[C@@H]1C[C@@H](NC(=S)Nc1ccc(C(F)(F)F)cc1)CC2 [Compound 14]	2.02 ^b
COCCOCCOC(=O)[C@]12CC[C@@H](NC(=O)Nc3ccc(C(F)(F)F)cc3)C[C@@H]1C[C@@H](NC(=O)Nc1ccc(C(F)(F)F)cc1)CC2 [Compound 9]	1.55
CCc1c(CNC(=S)Nc2cc(C(F)(F)F)cc(C(F)(F)F)c2)c(CC)c(CNC(=S)Nc2cc(C(F)(F)F)cc(C(F)(F)F)c2)c(CC)c1CNC(=S)Nc1cc(C(F)(F)F)cc(C(F)(F)F)c1 [Compound 6]	0.11 ^b
CCCCCCCCOC(=O)[C@]12CC[C@@H](NC(=S)Nc3ccc([N+](=O)[O-])cc3)C[C@@H]1C[C@@H](NC(=S)Nc1ccc([N+](=O)[O-])cc1)CC2 [Compound 13]	0.24

test: not given; design: method as in ref [20], [24], [29] (Reference column); details: I for external addition divided by I for preincorporated anionophore; ref [20], [24], [29]; cited from earlier work

SMILES	Deliverability index (D)
O=C(Nc1ccc(C(F)(F)F)cc1)Nc1cccc2cc3cccc(NC(=O)Nc4ccc(C(F)(F)F)cc4)c3cc12 [Compound 21]	0.62
O=C(Nc1ccc([N+](=O)[O-])cc1)Nc1cccc2cc3cccc(NC(=O)Nc4ccc([N+](=O)[O-])cc4)c3cc12 [Compound 20]	0.82
O=C(Nc1cc(C(F)(F)F)cc(C(F)(F)F)c1)Nc1cccc2cc3cccc(NC(=O)Nc4cc(C(F)(F)F)cc(C(F)(F)F)c4)c3cc12 [Compound 22]	0.45
CCCCCCCCOC(=O)[C@]12CC[C@@H](NC(=S)Nc3cc(C(F)(F)F)cc(C(F)(F)F)c3)C[C@@H]1C[C@@H](NC(=S)Nc1cc(C(F)(F)F)cc(C(F)(F)F)c1)CC2 [Compound 16]	0.03

Reference: paper PMC6984391, “Anion carriers as potential treatments for cystic fibrosis: transport in cystic fibrosis cells, and additivity to channel-targeting drugs” (Chemical Science, 2019)
